Values of other authors in patent publication US4937239A, “Azabicycloalkane oxime & azabicycloalkene oxime muscarinic agents” (Warner-Lambert Company, priority 1989, dated 1990).
At least one structure is not confirmed: it was looked up by name or label, or the drawing left a doubt.

Conditions: in vivo; cited from earlier work

CC(=O)OCC[N+](C)(C)C [acetylcholine]
antinociceptive activity: possess antinociceptive activity
